Measured values reported in PMC8262884.

Target: TY-tagged phosphoenolpyruvate carboxykinase (TY-PEPCK) (Trypanosoma brucei)
Experiment: proximity ligation; Duolink In Situ Red mouse/rabbit kit on PFA-fixed, Triton X-100-permeabilized Δpepck/TY-PEPCK/UGP-MYC.i procyclic cells; rabbit anti-MYC and mouse anti-TY1; cell lines with only one tagged protein as negative controls

binding: binds weakly
B1: MYC-tagged UDP-glucose pyrophosphorylase (UGP-MYC) (enzyme, UniProt D3HTY9 1-485)
chain: MPLNPPSAFSGAALACLEKMQASGVEEKCIHIFLIQHALVRKGETGYIPEKSISPVESLPFLQGIETKGENTALLRQAVVLKLNGGLGTGMGLNGPKSLLQVKNGQTFLDFTALQLEHFRQVRNCNVPFMLMNSFSTSGETKNFLRKYPTLYEVFDSDIELMQNRVPKIRQDNFFPVTYEADPTCEWVPPGHGDVYTVLYSSGKLDYLLGKGYRYMFISNGDNLGATLDVRLLDYMHEKQLGFLMEVCRRTESDKKGGHLAYKDVIDETTGQTRRRFVLRESAQCPKEDEDSFQNIAKHCFFNTNNIWINLMELKKMMDEQLGVLRLPVMRNPKTVNPQDSQSTKVYQLEVAMGAAISLFDRSEAVVVPRERFAPVKTCSDLLALRSDAYQVTEDQRLVLCEERNGKPPAIDLDGEHYKMIDGFEKLVKGGVPSLRQCTSLTVRGLVEFGADVSVRGNVVIKNLKEEPLIIGSGRVLDNEVVVVE

Results are given in words; binding and its absence hold for the method and conditions named. Binding seen in cells or lysates may run through a third protein. Binding can be weak; no strength is given. Where a sequence is shown, tags or fusion partners need not be part of it.
